Data taken from ChEMBL document CHEMBL3046637, “Synthesis of new series of pyrazolo[4,3-d]pyrimidin-7-ones and pyrido[2,3-d]pyrimidin-4-ones for their bacterial and cyclin-dependent kinases (CDKs) inhibitory activities” (Med Chem Res, 2011).
Converted amounts (≈) assume the structure as drawn.

Tested on: Escherichia coli
Assay: Antimicrobial activity against Escherichia coli NCTC 10418 by two-fold serial dilution technique
Format: functional

In the case of `CC1(C)S[C@@H]2[C@H](NC(=O)[C@H](N)c3ccccc3)C(=O)N2[C@H]1C(=O)O` [AMPICILLIN], the MIC is reported as 7.81 mg/L (≈ 22.4 µM).
